Source: PubChem BioAssay AID540276 (National Center for Advancing Translational Sciences (NCATS), 2011)
The whole screen tested about 300,000 compounds, of which about 5,400 (1.8%) were called active. Inconclusive means that the source gave no clear call. Such entries were picked first, then a sample of the others. Calls follow the shape of the full dose curve; tested in HEK293 cells. Potencies beside an inconclusive call are fits to weak or partial responses and may not hold up.

test: qHTS for inhibitors of binding or entry into cells for Marburg Virus; details: Marburg virus pseudotyped entry inhibition, cell reporter; activity change, negative = inhibition: at 37.8 µM (top of the series) unless noted
% is scaled to controls: 0 for no effect and ±100 for the full control effect; potency is read from the fitted curve at half-maximal effect.

Row | SMILES | Potency | activity change, negative = inhibition
1 | O=C(CN1CCC(c2nc3ccccc3s2)CC1)NCc1cccs1 | inconclusive: 11.6 µM [inhibitor, partial curve, poor fit] | –
2 | O=C(NC1CCCc2c1cnn2-c1ccc(F)cc1F)c1cnccn1 (configuration not stated) | – | inconclusive: 0.264% [activator] [at 46.1 µM]
3 | CC(C)C(=O)N1CCN(c2ccc(NC(=O)c3cccs3)cc2)CC1 | – | inactive: -1.8% [at 46.1 µM]
4 | CN1C(=O)CC(N2CCN(C(=O)c3ccccc3)CC2)C1=O (configuration not stated) | inconclusive: 12.6 µM [activator, partial curve, poor fit] | –
5 | CC(C)Cn1c(N)c(C(=O)COC(=O)c2ccc(F)cc2)c(=O)n(C)c1=O | inconclusive: 35.5 µM [inhibitor, single point] | –
6 | CCOC(=O)C(=O)N(CC)C1CCS(=O)(=O)C1 (configuration not stated) | – | inactive: -18.4% [at 14.2 µM]
7 | CN1CCN(CC(=O)N2c3ccccc3C(C)(c3ccccc3)CC2(C)C)CC1 (configuration not stated) | inconclusive: 11.2 µM [inhibitor, partial curve, poor fit] | –
8 | Cc1cc(C(=O)Cn2nc(C(=O)O)c3ccccc3c2=O)c(C)n1-c1ccc(F)cc1 | inconclusive: 0.316 µM [activator, partial curve, poor fit] | –
9 | O=C(CSc1nnc(Cc2cccs2)n1Cc1ccco1)Nc1cccc(Cl)c1 | inconclusive: 32.6 µM [inhibitor, single point] | –
10 | C/C(=N\NC(=O)c1cccc(S(=O)(=O)N2CCCC2)c1)c1ccccc1F | inconclusive: 35.5 µM [activator, single point] | –
11 | C/C(CCN1CCc2nc(-c3ccccc3)c(-c3ccccc3)cc2C1)=N\OC[C@@H](O)COCc1ccco1 | inconclusive: 0.0299 µM [activator, full curve, poor fit] | –
12 | COc1cc(NC(=O)CSc2nnc3n2C(C)(C)Cc2ccccc2-3)cc(OC)c1 | inconclusive: 1.46 µM [inhibitor, partial curve, poor fit] | –
13 | Cc1ccsc1C(=O)OCC(=O)NCCNC(=O)COC(=O)c1sccc1C | inconclusive: 5.01 µM [activator, full curve, poor fit] | –
14 | Cc1ccc(CN2CCSc3ccc(C(=O)N4CCN(c5cccc(C)c5C)CC4)cc32)cc1 | – | inactive: -11.9% [at 46.1 µM]
15 | Cc1cccc(NS(=O)(=O)c2ccc(C(=O)N3CCN(c4ccccc4O)CC3)cc2)c1C | inconclusive: 35.5 µM [inhibitor, single point] | –
16 | CCOc1ccc(-c2ccc(SCC(=O)N3CCOCC3)nn2)cc1 | inconclusive: 35.5 µM [inhibitor, single point] | –
17 | Clc1ccc2nc(-c3ccccn3)c(Nc3ccc4c(c3)OCO4)n2c1 | – | inactive: 0.66%
18 | CCc1ccccc1NC(=O)CN(C)C(=O)CN1C(=O)NC2(CCCCCC2)C1=O | inconclusive: 0.058 µM [inhibitor, partial curve, poor fit] | –
19 | CC(=O)Nc1cccc(NC(=O)CSc2nnc(Cc3cccn3C)n2-c2ccc(C)cc2)c1 | – | inactive: -12.9%
20 | Cc1ccc(OCCCn2c(C3CC(=O)N(c4cccc(Cl)c4)C3)nc3ccccc32)c(C)c1 (configuration not stated) | inconclusive: 7.08 µM [inhibitor, full curve, poor fit] | –
21 | O=C(Nc1nnc(-c2ccco2)s1)C1CC1 | – | inactive: 14.1%
22 | CCOc1cc(/C=N/NC(=O)Nc2ccccc2)ccc1O | inconclusive: 3.55 µM [inhibitor, partial curve, poor fit] | –
23 | CCCCCCCN=C(C)c1ccccc1O | inconclusive: 6.31 µM [inhibitor, single point] | –

Row | SMILES | Potency | activity change, negative = inhibition
24 | CN1C2CCC1CC(NC(=O)c1ccc(Cl)cc1)C2 (configuration not stated) | – | inactive: -20.1% [at 46.1 µM]
25 | Cc1nc(N)sc1-c1csc(Nc2ccc(Cl)cn2)n1 | inconclusive: 18.3 µM [inhibitor, partial curve, poor fit] | –
26 | COc1ccc(-c2csc(NCc3ccco3)n2)cc1C | – | inactive: 4.03%
27 | Nc1nnnn1/N=C/c1ccccc1OCc1ccccc1 | inconclusive: 22.4 µM [inhibitor, single point] | –
28 | CCOC(=O)c1ccc(NC(=O)CCc2c(C)nc3c(c(C)nn3C)c2C)cc1 | – | inactive: -14.9% [at 46.1 µM]
29 | COc1cc(C(Nc2ccc(S(=O)(=O)NCC3CCCO3)cc2)C(=O)NC(C)(C)C)cc(OC)c1OC (configuration not stated) | – | inactive: -0.701% [at 46.1 µM]
30 | COc1ccc(Cc2nc3ccc(C(=O)NC(C)Cc4ncccc4C)cc3o2)cc1OC (configuration not stated) | inconclusive: 20 µM [inhibitor, single point] | –
31 | Cc1cc(C)c(S(=O)(=O)NNC(=O)C2CCN(Cc3ccccc3)CC2)c(C)c1 | inconclusive: 29.1 µM [inhibitor, single point] | –
32 | Clc1ccc2nc(-c3ccccc3)nc(C(Cl)Cl)c2c1 | inconclusive: 2.51 µM [inhibitor, partial curve, poor fit] | –
33 | CC1C(=O)NC(=O)C1c1ccccc1 (configuration not stated) | inconclusive: 10 µM [activator, partial curve] | –
34 | O=C(Nc1ccc(N2CCN(C(=O)c3ccco3)CC2)cc1)c1ccco1 | inconclusive: 3.55 µM [activator, partial curve, poor fit] | –
35 | Cn1cc(C(=O)NCc2cccs2)c(=O)c2cc(S(=O)(=O)N3CCCC3)ccc21 | inconclusive: 11.2 µM [inhibitor, partial curve, poor fit] | –
36 | Cc1ncc(CO)c(/C=N/NC(=O)c2cccc(S(=O)(=O)N3CCCC3)c2)c1O | inconclusive: 15.8 µM [inhibitor, single point] | –
37 | COc1ccnc(Oc2ccc(F)cc2)c1C(=O)N/C=N/OCc1ccccc1 | – | inactive: 1.53% [at 46.1 µM]
38 | Cc1ccc(Oc2cc(NC(=O)CCCn3nc([N+](=O)[O-])cc3C)cc([N+](=O)[O-])c2)cc1 | inconclusive: 35.5 µM [inhibitor, single point] | –
39 | CCOC(=O)c1cnc2ccc(F)cc2c1Nc1ccc2c(c1)OCCO2 | inconclusive: 35.5 µM [inhibitor, single point] | –
40 | CCCC(C(=O)NC(C)(C)CC)N(Cc1ccco1)C(=O)CNS(=O)(=O)c1ccccc1 (configuration not stated) | inconclusive: 28.2 µM [inhibitor, single point] | –
41 | CCCCNC(=O)/C(C#N)=C/c1ccc(F)cc1F | inconclusive: 35.5 µM [inhibitor, single point] | –
42 | Clc1ccccc1-c1nnc(-c2ccc3c(c2)OCO3)o1 | inconclusive: 10 µM [inhibitor, partial curve, poor fit] | –
43 | CCc1ccc(CN(C(=O)c2nc(SC)ncc2Cl)C2CCS(=O)(=O)C2)cc1 (configuration not stated) | – | inactive: -0.298% [at 46.1 µM]
44 | Cc1nc2ccc(-c3nc4ccccc4[nH]3)cc2[nH]1 | – | inactive: -17.1% [at 46.1 µM]
45 | Cc1ccc(-n2nnnc2Sc2ccc(S(=O)(=O)NCCN(C)C)cc2[N+](=O)[O-])cc1 | active: 9.2 µM | –
46 | COc1ccc(Cn2c(C3CC3)nc3ccc(NC(=O)C4CC4)cc3c2=O)cc1 | inconclusive: 35.5 µM [inhibitor, single point] | –

Some of the entries so far, as a markdown table.

| Row | SMILES | Potency | activity change, negative = inhibition |
| --- | --- | --- | --- |
| 25 | Cc1nc(N)sc1-c1csc(Nc2ccc(Cl)cn2)n1 | inconclusive: 18.3 µM [inhibitor, partial curve, poor fit] | – |
| 26 | COc1ccc(-c2csc(NCc3ccco3)n2)cc1C | – | inactive: 4.03% |

Continuation:

Row | SMILES | Potency | activity change, negative = inhibition
47 | Cc1ccc(Cl)cc1NC(=O)NCc1cccnc1 | inconclusive: 0.562 µM [inhibitor, full curve, poor fit] | –
48 | CCOC(=O)C1C(=O)C=C(c2ccc(C)cc2)CC1c1ccc([N+](=O)[O-])cc1 (configuration not stated) | inconclusive: 8.91 µM [inhibitor, single point] | –
49 | CCOC(=O)C1=C(C)Nc2ccccc2N=C1NC(=O)C(CC)c1ccccc1 (configuration not stated) | inconclusive: 29.1 µM [inhibitor, partial curve, poor fit] | –
50 | CSc1nc(-c2ccccc2)nn1C(=O)c1ccccc1 | – | inactive: -1.27%
51 | CC1(C)CC(=O)C2=C(C1)N=C1c3ccccc3C(=O)C1C2c1ccc(Cl)cc1 (configuration not stated) | inconclusive: 35.5 µM [inhibitor, single point] | –
52 | CCCCC(=O)N(Cc1ccc2c(c1)OCO2)Cc1nc2ccccc2c(=O)[nH]1 | inconclusive: 1.58 µM [inhibitor, partial curve, poor fit] | –
53 | O=C(NCc1ccccn1)Nc1ccc(Cl)c(Cl)c1 | – | inactive: 6.11% [at 46.1 µM]
54 | Cc1ccc(CN2CCC(n3nccc3NC(=O)c3ccc4c(c3)OCO4)CC2)o1 | – | inactive: 3.57%
55 | CCOC(=O)Nc1sc(C)c(C)c1C(N)=O | inconclusive: 1.26 µM [inhibitor, partial curve, poor fit] | –
56 | O=C1/C(=C/Nc2cccc([N+](=O)[O-])c2)CCc2ccccc21 | inconclusive: 0.82 µM [activator, partial curve, poor fit] | –
57 | Cc1ccc(Nc2nnc(SCC(=O)c3ccc(O)cc3O)s2)cc1 | inconclusive: 22.4 µM [inhibitor, single point] | –
58 | CCOc1ccc(NC(=O)NC(C)c2ccc3c(c2)OCO3)cc1 (configuration not stated) | – | inactive: -3.73% [at 46.1 µM]
59 | Cc1ccc(N=Nc2ccc(O)c3ncccc23)cc1 | inconclusive: 7.08 µM [inhibitor, partial curve, poor fit] | –
60 | O=C(c1ccc(C(F)(F)F)cc1)C1CCCN(C(=O)c2cnccn2)C1 (configuration not stated) | inconclusive: 3.16 µM [inhibitor, partial curve, poor fit] | –
61 | CN(C)c1ccc(/C=N/N=C(N)N)cc1[N+](=O)[O-] | inconclusive: 35.5 µM [inhibitor, single point] | –
62 | CC(=O)OCCCNc1cc(Sc2ccc(Cl)cc2)c2nonc2c1[N+](=O)[O-] | – | inactive: 6.92%
63 | COCC(=O)N1CCCc2ccccc21 | – | inactive: 28.9% [at 46.1 µM]
64 | C=CCSc1nnc(NC(=O)CSc2nc3ccccc3o2)s1 | inconclusive: 35.5 µM [inhibitor, single point] | –
65 | O=C(OCc1ccc([N+](=O)[O-])cc1)C1CCN(S(=O)(=O)c2ccccc2)CC1 | – | inactive: 0.444%
66 | CN(C)CCCN(C(=O)c1ccc(S(=O)(=O)N2CCCCC2)cc1)c1nc2cc3c(cc2s1)OCO3 | inconclusive: 35.5 µM [inhibitor, single point] | –
67 | CSc1nc(O)c(C(c2ccc(F)cc2)c2c(O)nc(SC)[nH]c2=O)c(=O)[nH]1 | – | inactive: -1.38% [at 46.1 µM]

An excerpt of these results, tab-delimited.
Row	SMILES	Potency	activity change, negative = inhibition
47	Cc1ccc(Cl)cc1NC(=O)NCc1cccnc1	inconclusive: 0.562 µM [inhibitor, full curve, poor fit]	–
53	O=C(NCc1ccccn1)Nc1ccc(Cl)c(Cl)c1	–	inactive: 6.11% [at 46.1 µM]
